Experimental data published in patent US12708613B2, “Methods for improving physical exercise performance” (NOMIO NUTRITION AB, priority 2020, dated 2026).

System: myrosinase
Assay: Study IV: sulforaphane formation from glucoraphanin in sprout homogenate without mustard seeds
Details: no mustard seeds added

## C[S+]([O-])CCCC/C(=N\OS(=O)(=O)O)S[C@@H]1O[C@H](CO)[C@@H](O)[C@H](O)[C@H]1O (some centres unmarked) [glucoraphanin, 4-Methylsulfinylbutyl glucosinolate]
14 days at 20 degrees Celsius
  glucoraphanin concentration after incubation: 6.6 g/L
  glucoraphanin concentration before incubation: 118.1 g/L
